According to patent publication US20230365681A1 (CELGENE, published 2023):
No constants are given. Whether binding was seen depends on the method and setting. Some results given as binding are weak or reduced against the parent protein; the word gives no strength.

Biological target: cynomolgus CD47 on red blood cells (cynomolgus monkey)
Experiment: isolated cynomolgus RBCs, reference of the assay

B1: TPP-23 (408_437 Fab with IgG1) (antibody, V domains shown)
VH: QMQLVQSGAEVKKPGSSVKVSCKASGFNIKDYYLHWVRQAPGKGLEWMGWIDPDQGDTEYAQKFQGRVTITRDRSTSTAYMELRSLRAEDTAVYYCNAAYGSSSYPMDYWGQGTLVTVSS
VL: NIQMTQSPSSLSASVGDRVTITCRASQDIHRYLSWFQQKPGKVPKHLIYRANRLVSGVPSRFSGSGSGTEFTLTISSLQPEDFATYYCLQYDEFPYTFGGGTKVEIK
notes: The crystal structure was made with an anti-CD47 Fab of this antibody; also called parental CD47 mAb
**Q.** How did the binding turn out when B1 was run?
**A.** binds
